According to patent publication US20080008666A1, “Breath Test for Oral Malodor” (priority 2004, published 2008):

Test: Airway (oral cavity) breath VOC analysis by ATD/GC/MS in patients with oral malodor
Parameters: species or system human
Conditions: oral cavity breath samples of patients with strong offensive oral malodor, all patients combined; thirty most abundant VOCs

Compared with `C=CC(=C)C` [1,3-Butadiene, 2-methyl-], `C=C(C)C` [1-Propene, 2-methyl-] is higher in “Mean relative abundance (mean value of ratio to abundance of an internal standard)” value: 3.87 for the first, 4 for the second.

Compared with `CCC(C)=O` [2-Butanone], `CCO` [Ethanol] is higher in “Mean relative abundance (mean value of ratio to abundance of an internal standard)” value: 1.11 for the first, 4.64 for the second.

Going from `CC=O` [Acetaldehyde] to `CCC(C)C` [Butane, 2-methyl-], the “Mean relative abundance (mean value of ratio to abundance of an internal standard)” value rises from 0.55 to 1.21.

First: Cc1ccccc1 [Benzene, methyl-]
Second: CCCC(C)C [Pentane, 2-methyl-]
The “Mean relative abundance (mean value of ratio to abundance of an internal standard)” value of the first is higher: 8.25 for the first, 0.75 for the second.

First: CC(C)(C)C(C)(C)C [Butane, 2,2,3,3-tetramethyl-]
Second: CCCC(C)C(C)(C)C (centres unmarked) [Hexane, 2,2,3-trimethyl-]
The “Mean relative abundance (mean value of ratio to abundance of an internal standard)” value of the first is higher: 4.75 for the first, 0.53 for the second.

First: CC1CCCCC1 [Cyclohexane, methyl-]
Second: CC1CCCC1 [Cyclopentane, methyl-]
The “Mean relative abundance (mean value of ratio to abundance of an internal standard)” value of the first is lower: 2.63 for the first, 2.94 for the second.

First: C1CCCCC1 [Cyclohexane]
Second: CCC1CCCC1 [Cyclopentane, ethyl-]
The “Mean relative abundance (mean value of ratio to abundance of an internal standard)” value of the first is higher: 2 for the first, 0.54 for the second.

First: CCC(C)CCCCCC(C)(C)C (centres unmarked) [Decane, 2,2,8-trimethyl-]
Second: CCCCCCCCC(C)(C)C [Decane, 2,2-dimethyl-]
The “Mean relative abundance (mean value of ratio to abundance of an internal standard)” value of the first is lower: 0.75 for the first, 3.42 for the second.

Compared with `CCCCCCC` [Heptane], `CCCCCC` [Hexane] is higher in “Mean relative abundance (mean value of ratio to abundance of an internal standard)” value: 0.96 for the first, 2.84 for the second.

First: CCC(C)CC(C)(C)C (centres unmarked) [Hexane, 2,2,4-trimethyl-]
Second: CC(C)CCC(C)(C)C [Hexane, 2,2,5-trimethyl-]
The “Mean relative abundance (mean value of ratio to abundance of an internal standard)” value of the first is lower: 0.57 for the first, 4.09 for the second.

Compared with `CCCCC(C)C` [Hexane, 2-methyl-], `CCCC(C)CC` (centres unmarked) [Hexane, 3-methyl-] is higher in “Mean relative abundance (mean value of ratio to abundance of an internal standard)” value: 2.63 for the first, 3.18 for the second.

Going from `CCCCC(CCC)CC(C)CC` (centres unmarked) [Nonane, 3-methyl-5-propyl-] to `CCCCCCCCC(C)CC` (centres unmarked) [Undecane, 3-methyl-], the “Mean relative abundance (mean value of ratio to abundance of an internal standard)” value falls from 3.59 to 1.38.

Compared with `CCC(C)(C)C(C)C` [Pentane, 2,3,3-trimethyl-], `CCC(CC)C(C)(C)C` [Pentane, 3-ethyl-2,2-dimethyl-] is higher in “Mean relative abundance (mean value of ratio to abundance of an internal standard)” value: 0.75 for the first, 0.82 for the second.

Compared with `CC(C)C(C)C(C)C` [Pentane, 2,3,4-trimethyl-], `CCC(C)C(C)C` (centres unmarked) [Pentane, 2,3-dimethyl-] is higher in “Mean relative abundance (mean value of ratio to abundance of an internal standard)” value: 0.72 for the first, 1.5 for the second.

With `CCC(C)CC` [Pentane, 3-methyl-] the “Mean relative abundance (mean value of ratio to abundance of an internal standard)” value was 1.01.
